Measurements taken from the supplement of paper PMC5355238.
Structures can show the parent of a compound that is named as a salt. The list shows a part of the results. Most values lie at the level of the controls, where differences are scatter.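 Reh is a human leukemia cell line; the read-out is the median γH2AX antibody signal in S-phase cells by flow cytometry, with the score counting standard deviations from the median difference of each paired set of plates. Scores above 2.5 were called candidate hits, while scores below -2 mark compounds that lowered the MK1775-induced damage.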

Tested on: Reh
Experiment: Z' of S-phase gammaH2AX difference (drug + MK1775 minus drug alone) (Z-score); higher = stronger synergistic S-phase DNA damage with MK1775
Conditions: MK1775 concentration 400 nM; first compound 10 µM; 4 h

SMILES | Z' of S-phase gammaH2AX difference (Z-score)
CN(C)CCOc1ccc(/C(=C(/CCCl)c2ccccc2)c2ccccc2)cc1 [Toremifene Citrate (Fareston, Acapodene)] + C=CCn1c(=O)c2cnc(Nc3ccc(N4CCN(C)CC4)cc3)nc2n1-c1cccc(C(C)(C)O)n1 [MK1775] | inactive: 0.107
CC1=Nc2ccc(Cl)cc2S(=O)(=O)N1 [Diazoxide] + C=CCn1c(=O)c2cnc(Nc3ccc(N4CCN(C)CC4)cc3)nc2n1-c1cccc(C(C)(C)O)n1 [MK1775] | inactive: -0.342
CCn1nc(C(=O)O)c(=O)c2cc3c(cc21)OCO3 [Cinoxacin] + C=CCn1c(=O)c2cnc(Nc3ccc(N4CCN(C)CC4)cc3)nc2n1-c1cccc(C(C)(C)O)n1 [MK1775] | inactive: 0.11
CN1CCN(c2nc3cc(C(F)(F)F)ccc3n3cccc23)CC1 + C=CCn1c(=O)c2cnc(Nc3ccc(N4CCN(C)CC4)cc3)nc2n1-c1cccc(C(C)(C)O)n1 [MK1775] | inactive: 0.842
COc1cc2nccc(Oc3ccc(NC(=O)C4(C(=O)Nc5ccc(F)cc5)CC4)cc3)c2cc1OC [XL-184 free base (Cabozantinib)] + C=CCn1c(=O)c2cnc(Nc3ccc(N4CCN(C)CC4)cc3)nc2n1-c1cccc(C(C)(C)O)n1 [MK1775] | inactive: 0.178
CNC(=O)c1cc(COc2nnc(Nc3ccc(Cl)cc3)c3ccoc23)ccn1 [Telatinib (BAY 57-9352)] + C=CCn1c(=O)c2cnc(Nc3ccc(N4CCN(C)CC4)cc3)nc2n1-c1cccc(C(C)(C)O)n1 [MK1775] | inactive: -0.199
OC[C@H]1O[C@@H](c2nc3cc(Cl)c(Cl)cc3[nH]2)[C@H](O)[C@@H]1O [D-ribofuranosylbenzimidazole] + C=CCn1c(=O)c2cnc(Nc3ccc(N4CCN(C)CC4)cc3)nc2n1-c1cccc(C(C)(C)O)n1 [MK1775] | inactive: -0.0996
CC(COc1ccccc1)N(CCCl)Cc1ccccc1 (stereo unspecified) [Phenoxybenzamine hydrochloride] + C=CCn1c(=O)c2cnc(Nc3ccc(N4CCN(C)CC4)cc3)nc2n1-c1cccc(C(C)(C)O)n1 [MK1775] | inactive: -0.177
Nc1ncn([C@@H]2O[C@H](CO)[C@@H](O)[C@H]2O)c(=O)n1 [5-azacytidine] + C=CCn1c(=O)c2cnc(Nc3ccc(N4CCN(C)CC4)cc3)nc2n1-c1cccc(C(C)(C)O)n1 [MK1775] | inactive: -0.254
Nc1ncn([C@@H]2O[C@H](CO)[C@@H](O)[C@H]2O)c(=O)n1 [Azacitidine (Vidaza)] + C=CCn1c(=O)c2cnc(Nc3ccc(N4CCN(C)CC4)cc3)nc2n1-c1cccc(C(C)(C)O)n1 [MK1775] | inactive: -0.363
CCCNC(C)C(=O)Nc1ccccc1C (stereo unspecified) [Prilocaine hydrochloride] + C=CCn1c(=O)c2cnc(Nc3ccc(N4CCN(C)CC4)cc3)nc2n1-c1cccc(C(C)(C)O)n1 [MK1775] | inactive: -0.359
CNc1ncnc2c1ncn2[C@H]1C[C@H](OP(=O)(O)O)[C@@H](COP(=O)(O)O)O1 + C=CCn1c(=O)c2cnc(Nc3ccc(N4CCN(C)CC4)cc3)nc2n1-c1cccc(C(C)(C)O)n1 [MK1775] | inactive: 0.524
O=C(Nc1ccc(OC(F)(F)F)cc1)c1sccc1NCc1ccnc2ccccc12 + C=CCn1c(=O)c2cnc(Nc3ccc(N4CCN(C)CC4)cc3)nc2n1-c1cccc(C(C)(C)O)n1 [MK1775] | inactive: -0.157
CC(=O)c1ccc(S(=O)(=O)NC(=O)NC2CCCCC2)cc1 [Acetohexamide] + C=CCn1c(=O)c2cnc(Nc3ccc(N4CCN(C)CC4)cc3)nc2n1-c1cccc(C(C)(C)O)n1 [MK1775] | inactive: 0.0267
CCSC(=N)N [S-Ethylisothiourea hydrobromide] + C=CCn1c(=O)c2cnc(Nc3ccc(N4CCN(C)CC4)cc3)nc2n1-c1cccc(C(C)(C)O)n1 [MK1775] | inactive: 0.59
CCC(=O)N1CCN(C(=O)c2ccccc2)CC1 + C=CCn1c(=O)c2cnc(Nc3ccc(N4CCN(C)CC4)cc3)nc2n1-c1cccc(C(C)(C)O)n1 [MK1775] | inactive: 0.687
CNC(=O)c1cc2c(cn1)[nH]c1ccccc12 [N-Methyl-beta-carboline-3-carboxamide] + C=CCn1c(=O)c2cnc(Nc3ccc(N4CCN(C)CC4)cc3)nc2n1-c1cccc(C(C)(C)O)n1 [MK1775] | inactive: 0.00243
Cn1c(=O)c2nc[nH]c2n(C)c1=O [Theophylline] + C=CCn1c(=O)c2cnc(Nc3ccc(N4CCN(C)CC4)cc3)nc2n1-c1cccc(C(C)(C)O)n1 [MK1775] | inactive: 0.211

SMILES | Z' of S-phase gammaH2AX difference (Z-score)
c1ccc(C2CN3CCSC3=N2)cc1 (stereo unspecified) [Tetramisole hydrochloride] + C=CCn1c(=O)c2cnc(Nc3ccc(N4CCN(C)CC4)cc3)nc2n1-c1cccc(C(C)(C)O)n1 [MK1775] | inactive: -1.9
CC(COc1ccc(/C=C/c2ccccc2)cc1)[N+](C)(C)C (stereo unspecified) + C=CCn1c(=O)c2cnc(Nc3ccc(N4CCN(C)CC4)cc3)nc2n1-c1cccc(C(C)(C)O)n1 [MK1775] | inactive: -1.14
O=C(N[C@@H](Cc1ccccc1)C(=O)CCl)OCc1ccccc1 [Z-L-Phe chloromethyl ketone] + C=CCn1c(=O)c2cnc(Nc3ccc(N4CCN(C)CC4)cc3)nc2n1-c1cccc(C(C)(C)O)n1 [MK1775] | inactive: -0.538
CC(C)(C)c1[nH]cnc1/C=c1\[nH]c(=O)/c(=C/c2ccccc2)[nH]c1=O [NPI-2358 (Plinabulin)] + C=CCn1c(=O)c2cnc(Nc3ccc(N4CCN(C)CC4)cc3)nc2n1-c1cccc(C(C)(C)O)n1 [MK1775] | inactive: -0.088
Cc1scc2c1N(C(=O)CN1CCN(C)CC1)c1ccccc1NC2=O [Telenzepine dihydrochloride] + C=CCn1c(=O)c2cnc(Nc3ccc(N4CCN(C)CC4)cc3)nc2n1-c1cccc(C(C)(C)O)n1 [MK1775] | inactive: 0.117
CN(C)CCC(c1ccc(Cl)cc1)c1ccccn1 (single isomer, unassigned; (+)) [(+)-Chlorpheniramine maleate] + C=CCn1c(=O)c2cnc(Nc3ccc(N4CCN(C)CC4)cc3)nc2n1-c1cccc(C(C)(C)O)n1 [MK1775] | inactive: 0.962
CO/N=C(\C(=O)N[C@@H]1C(=O)N2C(C(=O)O)=C(CSc3nc(=O)c(O)nn3C)CS[C@H]12)c1csc(N)n1 [Ceftriaxone sodium] + C=CCn1c(=O)c2cnc(Nc3ccc(N4CCN(C)CC4)cc3)nc2n1-c1cccc(C(C)(C)O)n1 [MK1775] | inactive: 0.778
COc1cccc(NC(=O)/C=C/c2ccc(Cl)cc2)c1 + C=CCn1c(=O)c2cnc(Nc3ccc(N4CCN(C)CC4)cc3)nc2n1-c1cccc(C(C)(C)O)n1 [MK1775] | inactive: 0.938
CCCCN1CCC(COC(=O)c2cc(Cl)c(N)c3c2OCCO3)CC1 + C=CCn1c(=O)c2cnc(Nc3ccc(N4CCN(C)CC4)cc3)nc2n1-c1cccc(C(C)(C)O)n1 [MK1775] | inactive: -0.263
Oc1ccccc1O [Pyrocatechol] + C=CCn1c(=O)c2cnc(Nc3ccc(N4CCN(C)CC4)cc3)nc2n1-c1cccc(C(C)(C)O)n1 [MK1775] | inactive: 0.565
FC(F)(F)c1ccccc1-n1ccnc1 [1-[2-(Trifluoromethyl)phenyl]imidazole] + C=CCn1c(=O)c2cnc(Nc3ccc(N4CCN(C)CC4)cc3)nc2n1-c1cccc(C(C)(C)O)n1 [MK1775] | inactive: -1.61
CCCCOC(=O)NS(=O)(=O)c1sc(CC(C)C)cc1-c1ccc(Cn2c(CC)nc3c(C)cc(C)nc32)cc1 + C=CCn1c(=O)c2cnc(Nc3ccc(N4CCN(C)CC4)cc3)nc2n1-c1cccc(C(C)(C)O)n1 [MK1775] | inactive: 0.109
CC(C)(C)NC[C@H](O)COc1nsnc1N1CCOCC1 [S(-)-Timolol maleate] + C=CCn1c(=O)c2cnc(Nc3ccc(N4CCN(C)CC4)cc3)nc2n1-c1cccc(C(C)(C)O)n1 [MK1775] | inactive: 0.468
C[C@]12CCC(=O)C=C1CC[C@@H]1[C@@H]2[C@@H](O)C[C@@]2(C)[C@H]1CC[C@]2(O)C(=O)COC(=O)CCC(=O)O [Hydrocortisone 21-hemisuccinate sodium] + C=CCn1c(=O)c2cnc(Nc3ccc(N4CCN(C)CC4)cc3)nc2n1-c1cccc(C(C)(C)O)n1 [MK1775] | inactive: -0.265
Cc1ccc(C(=O)Nc2ccc(CN3CCN(C)CC3)c(C(F)(F)F)c2)cc1C#Cc1cnc2cccnn12 + C=CCn1c(=O)c2cnc(Nc3ccc(N4CCN(C)CC4)cc3)nc2n1-c1cccc(C(C)(C)O)n1 [MK1775] | inactive: -1.08
O=C1CCC(c2ccc(-n3ccnc3)cc2)=NN1 [Imazodan] + C=CCn1c(=O)c2cnc(Nc3ccc(N4CCN(C)CC4)cc3)nc2n1-c1cccc(C(C)(C)O)n1 [MK1775] | inactive: 0.0462
CCNC(=O)N1CCN(CCCC(c2ccc(F)cc2)c2ccc(F)cc2)CC1 [Amperozide hydrochloride] + C=CCn1c(=O)c2cnc(Nc3ccc(N4CCN(C)CC4)cc3)nc2n1-c1cccc(C(C)(C)O)n1 [MK1775] | inactive: 0.331
Fc1ccc(C(OCCCc2cnc[nH]2)c2ccc(F)cc2)cc1 + C=CCn1c(=O)c2cnc(Nc3ccc(N4CCN(C)CC4)cc3)nc2n1-c1cccc(C(C)(C)O)n1 [MK1775] | inactive: 0.551

Reformatted: results already given.
SMILES	Z' of S-phase gammaH2AX difference (Z-score)
Oc1ccccc1O [Pyrocatechol] + C=CCn1c(=O)c2cnc(Nc3ccc(N4CCN(C)CC4)cc3)nc2n1-c1cccc(C(C)(C)O)n1 [MK1775]	inactive: 0.565
FC(F)(F)c1ccccc1-n1ccnc1 [1-[2-(Trifluoromethyl)phenyl]imidazole] + C=CCn1c(=O)c2cnc(Nc3ccc(N4CCN(C)CC4)cc3)nc2n1-c1cccc(C(C)(C)O)n1 [MK1775]	inactive: -1.61
